Among the data in article PMC8233286 are binding values, retold here.

The chains behind the UniProt entries cited, without tags or fusion partners. Residues count along the entry.
UniProt P27824, residues 21-592: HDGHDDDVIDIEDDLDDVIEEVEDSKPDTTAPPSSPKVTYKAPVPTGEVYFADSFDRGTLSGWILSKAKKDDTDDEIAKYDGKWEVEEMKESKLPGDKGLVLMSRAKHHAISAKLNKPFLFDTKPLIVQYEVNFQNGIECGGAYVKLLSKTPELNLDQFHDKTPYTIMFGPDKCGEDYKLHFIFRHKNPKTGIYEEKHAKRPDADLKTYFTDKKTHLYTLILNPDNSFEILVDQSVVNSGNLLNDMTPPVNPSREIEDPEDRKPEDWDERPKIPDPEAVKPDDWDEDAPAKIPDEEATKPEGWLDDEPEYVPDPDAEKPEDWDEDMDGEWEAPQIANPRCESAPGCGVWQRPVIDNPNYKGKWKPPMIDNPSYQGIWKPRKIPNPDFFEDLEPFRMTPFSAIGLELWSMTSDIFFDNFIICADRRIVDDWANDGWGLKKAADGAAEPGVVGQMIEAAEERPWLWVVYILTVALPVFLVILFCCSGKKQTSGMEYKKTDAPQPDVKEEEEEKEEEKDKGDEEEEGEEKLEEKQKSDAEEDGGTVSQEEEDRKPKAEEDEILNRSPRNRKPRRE
UniProt P31946: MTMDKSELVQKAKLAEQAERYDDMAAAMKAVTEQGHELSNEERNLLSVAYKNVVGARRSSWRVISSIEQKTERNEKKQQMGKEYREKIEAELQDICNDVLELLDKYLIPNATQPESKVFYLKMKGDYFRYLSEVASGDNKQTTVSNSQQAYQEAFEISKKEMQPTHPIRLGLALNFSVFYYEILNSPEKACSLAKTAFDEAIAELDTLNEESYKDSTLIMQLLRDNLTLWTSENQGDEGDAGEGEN
UniProt P46459: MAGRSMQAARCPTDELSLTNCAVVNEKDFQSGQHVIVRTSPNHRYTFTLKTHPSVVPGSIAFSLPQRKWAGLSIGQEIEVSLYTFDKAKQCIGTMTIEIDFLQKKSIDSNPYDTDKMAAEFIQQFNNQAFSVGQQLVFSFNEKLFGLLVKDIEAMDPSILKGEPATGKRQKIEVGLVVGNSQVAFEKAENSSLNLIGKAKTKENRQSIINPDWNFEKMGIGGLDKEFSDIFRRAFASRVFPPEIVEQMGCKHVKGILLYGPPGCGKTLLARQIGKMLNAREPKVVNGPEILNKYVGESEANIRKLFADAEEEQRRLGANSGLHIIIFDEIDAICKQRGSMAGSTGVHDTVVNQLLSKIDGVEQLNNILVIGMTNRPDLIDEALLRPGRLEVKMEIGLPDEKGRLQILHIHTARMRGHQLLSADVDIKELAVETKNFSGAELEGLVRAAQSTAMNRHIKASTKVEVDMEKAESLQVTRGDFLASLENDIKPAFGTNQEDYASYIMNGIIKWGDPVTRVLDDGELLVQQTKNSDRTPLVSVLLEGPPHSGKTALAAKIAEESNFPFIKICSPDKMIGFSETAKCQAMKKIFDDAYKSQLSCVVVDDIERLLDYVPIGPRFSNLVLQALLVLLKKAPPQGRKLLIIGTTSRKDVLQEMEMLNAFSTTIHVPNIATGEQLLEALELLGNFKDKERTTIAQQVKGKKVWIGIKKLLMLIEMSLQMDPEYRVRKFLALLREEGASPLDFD
UniProt P53621: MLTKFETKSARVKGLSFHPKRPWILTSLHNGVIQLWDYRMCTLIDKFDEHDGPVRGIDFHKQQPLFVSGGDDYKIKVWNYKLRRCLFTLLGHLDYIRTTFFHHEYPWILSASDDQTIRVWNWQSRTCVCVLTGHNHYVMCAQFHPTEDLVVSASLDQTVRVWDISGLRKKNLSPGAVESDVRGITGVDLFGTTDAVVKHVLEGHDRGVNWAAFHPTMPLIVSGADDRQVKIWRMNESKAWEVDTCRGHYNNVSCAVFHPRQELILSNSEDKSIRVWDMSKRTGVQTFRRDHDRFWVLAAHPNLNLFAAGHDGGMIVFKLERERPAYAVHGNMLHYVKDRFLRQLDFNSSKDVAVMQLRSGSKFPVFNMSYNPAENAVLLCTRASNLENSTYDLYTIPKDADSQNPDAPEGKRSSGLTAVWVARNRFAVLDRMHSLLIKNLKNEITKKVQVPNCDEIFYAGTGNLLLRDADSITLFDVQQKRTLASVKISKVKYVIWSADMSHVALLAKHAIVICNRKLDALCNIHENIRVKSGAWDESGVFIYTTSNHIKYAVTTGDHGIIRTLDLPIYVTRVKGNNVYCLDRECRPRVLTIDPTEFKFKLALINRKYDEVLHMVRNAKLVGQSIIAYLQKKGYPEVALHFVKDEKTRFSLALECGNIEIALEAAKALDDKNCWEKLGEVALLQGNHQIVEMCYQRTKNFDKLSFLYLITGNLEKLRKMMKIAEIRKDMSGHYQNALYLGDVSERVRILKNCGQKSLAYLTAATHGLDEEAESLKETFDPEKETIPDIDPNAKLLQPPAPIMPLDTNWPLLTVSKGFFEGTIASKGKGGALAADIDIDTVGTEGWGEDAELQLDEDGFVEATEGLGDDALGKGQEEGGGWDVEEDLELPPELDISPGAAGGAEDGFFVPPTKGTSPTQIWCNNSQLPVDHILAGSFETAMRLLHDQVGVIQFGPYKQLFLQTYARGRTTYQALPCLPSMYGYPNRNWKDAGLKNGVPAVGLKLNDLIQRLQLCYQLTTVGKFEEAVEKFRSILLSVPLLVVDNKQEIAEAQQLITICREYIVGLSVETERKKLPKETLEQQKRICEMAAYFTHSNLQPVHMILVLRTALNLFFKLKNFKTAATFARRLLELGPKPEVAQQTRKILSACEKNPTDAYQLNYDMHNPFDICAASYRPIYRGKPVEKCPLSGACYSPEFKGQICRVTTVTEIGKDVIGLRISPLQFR
UniProt P62258: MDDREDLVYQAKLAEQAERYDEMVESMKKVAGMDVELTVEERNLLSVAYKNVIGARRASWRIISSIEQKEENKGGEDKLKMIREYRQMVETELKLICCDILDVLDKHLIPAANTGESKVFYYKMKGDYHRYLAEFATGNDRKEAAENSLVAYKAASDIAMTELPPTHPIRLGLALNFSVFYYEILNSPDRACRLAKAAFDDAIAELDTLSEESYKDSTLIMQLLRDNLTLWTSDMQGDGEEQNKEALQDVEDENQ
UniProt O75396: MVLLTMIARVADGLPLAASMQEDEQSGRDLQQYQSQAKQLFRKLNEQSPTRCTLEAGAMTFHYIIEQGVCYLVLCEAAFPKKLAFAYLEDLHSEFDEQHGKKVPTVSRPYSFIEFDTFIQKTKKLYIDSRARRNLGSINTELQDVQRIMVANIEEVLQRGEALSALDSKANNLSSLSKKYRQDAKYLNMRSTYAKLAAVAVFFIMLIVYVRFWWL
UniProt Q92538: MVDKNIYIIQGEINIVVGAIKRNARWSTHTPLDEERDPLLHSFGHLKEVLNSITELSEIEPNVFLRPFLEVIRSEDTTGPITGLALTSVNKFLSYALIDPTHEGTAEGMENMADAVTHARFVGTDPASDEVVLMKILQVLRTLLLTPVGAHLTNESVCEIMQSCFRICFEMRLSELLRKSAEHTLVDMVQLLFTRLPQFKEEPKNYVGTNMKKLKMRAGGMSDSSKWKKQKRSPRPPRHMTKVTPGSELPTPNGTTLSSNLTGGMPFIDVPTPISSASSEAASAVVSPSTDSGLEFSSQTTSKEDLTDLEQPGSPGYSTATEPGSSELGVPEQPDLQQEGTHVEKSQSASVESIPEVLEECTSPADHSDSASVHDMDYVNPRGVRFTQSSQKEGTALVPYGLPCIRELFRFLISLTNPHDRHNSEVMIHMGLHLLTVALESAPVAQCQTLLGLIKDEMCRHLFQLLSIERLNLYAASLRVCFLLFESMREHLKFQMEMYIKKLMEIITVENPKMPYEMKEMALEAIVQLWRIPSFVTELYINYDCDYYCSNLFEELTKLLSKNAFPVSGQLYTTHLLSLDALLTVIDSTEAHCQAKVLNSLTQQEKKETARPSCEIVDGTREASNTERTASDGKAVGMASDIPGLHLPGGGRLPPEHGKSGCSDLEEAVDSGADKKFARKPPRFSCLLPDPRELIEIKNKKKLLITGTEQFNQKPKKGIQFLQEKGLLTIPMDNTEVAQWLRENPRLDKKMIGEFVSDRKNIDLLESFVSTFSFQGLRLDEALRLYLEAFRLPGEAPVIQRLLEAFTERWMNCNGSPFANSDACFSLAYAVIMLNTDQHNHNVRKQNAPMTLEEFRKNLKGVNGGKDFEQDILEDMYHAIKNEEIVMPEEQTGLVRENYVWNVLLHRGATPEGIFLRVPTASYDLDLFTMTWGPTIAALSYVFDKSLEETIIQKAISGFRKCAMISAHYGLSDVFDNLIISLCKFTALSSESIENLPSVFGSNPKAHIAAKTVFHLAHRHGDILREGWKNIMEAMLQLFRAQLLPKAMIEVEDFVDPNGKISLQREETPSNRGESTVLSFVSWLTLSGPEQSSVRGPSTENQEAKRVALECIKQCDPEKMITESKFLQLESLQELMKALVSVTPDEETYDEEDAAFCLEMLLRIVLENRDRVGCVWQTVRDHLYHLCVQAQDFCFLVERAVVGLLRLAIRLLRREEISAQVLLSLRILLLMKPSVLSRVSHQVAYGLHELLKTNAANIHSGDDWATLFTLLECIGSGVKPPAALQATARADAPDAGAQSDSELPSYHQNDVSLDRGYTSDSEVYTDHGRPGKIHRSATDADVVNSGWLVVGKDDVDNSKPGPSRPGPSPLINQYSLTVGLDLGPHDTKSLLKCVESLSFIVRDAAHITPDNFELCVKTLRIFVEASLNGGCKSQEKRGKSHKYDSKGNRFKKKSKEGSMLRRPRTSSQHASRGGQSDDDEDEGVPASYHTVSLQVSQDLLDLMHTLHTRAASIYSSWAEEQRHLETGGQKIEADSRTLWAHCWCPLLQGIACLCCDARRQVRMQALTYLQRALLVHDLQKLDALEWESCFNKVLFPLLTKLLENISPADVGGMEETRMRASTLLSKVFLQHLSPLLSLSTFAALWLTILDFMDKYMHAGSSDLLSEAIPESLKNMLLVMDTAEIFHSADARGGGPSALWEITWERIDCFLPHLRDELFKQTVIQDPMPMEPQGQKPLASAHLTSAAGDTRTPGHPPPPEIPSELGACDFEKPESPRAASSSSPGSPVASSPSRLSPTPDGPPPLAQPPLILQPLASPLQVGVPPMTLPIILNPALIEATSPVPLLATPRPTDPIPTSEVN

In experiment [1] the target is T1, murine wt_iRhom2 (wild-type) construct with 3xHA tag, in HEK293 cells (mouse) (UniProt Q80WQ6).
T1 sequence: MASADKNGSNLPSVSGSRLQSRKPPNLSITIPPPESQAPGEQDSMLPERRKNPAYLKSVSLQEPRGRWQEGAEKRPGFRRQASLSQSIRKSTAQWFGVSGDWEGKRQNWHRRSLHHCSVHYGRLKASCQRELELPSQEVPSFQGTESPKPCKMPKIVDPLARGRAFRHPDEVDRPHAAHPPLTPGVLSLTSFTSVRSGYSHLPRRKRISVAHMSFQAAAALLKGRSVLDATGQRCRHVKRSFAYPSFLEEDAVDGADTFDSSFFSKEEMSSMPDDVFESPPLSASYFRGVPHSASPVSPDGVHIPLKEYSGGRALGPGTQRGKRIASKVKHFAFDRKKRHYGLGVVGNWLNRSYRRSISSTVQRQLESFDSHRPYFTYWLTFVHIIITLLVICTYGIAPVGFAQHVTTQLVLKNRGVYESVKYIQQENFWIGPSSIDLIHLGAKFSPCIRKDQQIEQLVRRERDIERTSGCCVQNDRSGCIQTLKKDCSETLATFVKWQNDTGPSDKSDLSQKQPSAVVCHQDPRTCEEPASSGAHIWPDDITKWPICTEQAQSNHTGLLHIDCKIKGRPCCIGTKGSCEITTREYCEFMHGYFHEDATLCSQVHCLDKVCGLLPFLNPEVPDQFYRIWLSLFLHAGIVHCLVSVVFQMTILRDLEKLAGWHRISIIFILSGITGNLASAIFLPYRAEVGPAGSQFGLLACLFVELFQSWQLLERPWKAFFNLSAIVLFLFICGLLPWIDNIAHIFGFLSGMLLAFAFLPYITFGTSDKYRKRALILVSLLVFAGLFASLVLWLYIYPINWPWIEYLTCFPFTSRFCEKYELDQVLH
The experiment is described as follows: affinity purification with mass spectrometry; anti-HA co-IP from HEK293 cells stably expressing wt iRhom2, miR2_W538S or GFP (control); beads washed three times with lysis buffer and three times without detergent, on-bead trypsin digest, label-free quantification; hit: p-value < 0.01 and > fourfold over GFP.

Experiment [2] concerns the target T2, miR2_W538S (murine iRhom2 with W538S in iCERES), in HEK293 cells (mouse) (UniProt Q80WQ6).
T2 sequence: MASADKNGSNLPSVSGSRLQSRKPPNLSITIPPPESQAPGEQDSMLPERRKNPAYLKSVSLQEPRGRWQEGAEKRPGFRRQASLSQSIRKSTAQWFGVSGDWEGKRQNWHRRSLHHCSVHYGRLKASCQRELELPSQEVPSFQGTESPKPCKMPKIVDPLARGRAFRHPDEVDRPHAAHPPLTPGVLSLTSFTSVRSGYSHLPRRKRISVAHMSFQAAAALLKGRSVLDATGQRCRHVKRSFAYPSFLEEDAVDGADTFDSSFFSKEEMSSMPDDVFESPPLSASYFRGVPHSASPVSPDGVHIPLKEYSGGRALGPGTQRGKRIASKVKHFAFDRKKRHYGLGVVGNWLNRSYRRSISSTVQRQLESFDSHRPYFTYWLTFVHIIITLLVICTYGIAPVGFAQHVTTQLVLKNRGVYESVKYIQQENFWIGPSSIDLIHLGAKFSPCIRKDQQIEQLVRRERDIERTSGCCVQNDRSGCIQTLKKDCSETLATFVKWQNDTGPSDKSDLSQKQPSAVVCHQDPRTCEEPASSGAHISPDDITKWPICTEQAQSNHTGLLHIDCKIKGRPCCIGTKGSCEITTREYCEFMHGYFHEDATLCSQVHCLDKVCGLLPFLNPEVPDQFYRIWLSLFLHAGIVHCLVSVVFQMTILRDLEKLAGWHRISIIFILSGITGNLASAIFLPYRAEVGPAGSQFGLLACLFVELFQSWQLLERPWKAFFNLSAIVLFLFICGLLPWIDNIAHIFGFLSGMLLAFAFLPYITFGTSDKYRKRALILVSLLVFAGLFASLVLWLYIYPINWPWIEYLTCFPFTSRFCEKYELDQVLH
The description is as above.

Results are given in words; binding and its absence hold for the method and conditions named. Binding seen in cells or lysates may run through a third protein. These calls come from enrichment with a bait or labelling near it, and not all partners need be listed. For part of these data: A no says only that the protein was not detected with the bait. For part of these data: Tags and fused reporters may be left off the sequences shown.

Consider “calnexin, endogenous in HEK293 cells (from UniProt P27824 21-592)”, for which, in experiment [1], the binding result is reported as “binds”.

For the molecule “14-3-3 beta/alpha (YWHAB), endogenous in HEK293 cells (from UniProt P31946 1-246)”, the binding result in experiment [1] and in experiment [2] was “binds” in each case. Consider “NSF, endogenous in HEK293 cells (from UniProt P46459 1-744)”, for which the binding entry in experiment [1] was “binds”; in experiment [2] it was “no binding”. On to “coatomer subunit COPA, endogenous in HEK293 cells (from UniProt P53621 1-1224)”, for which the binding entry in experiment [1] and in experiment [2] was “binds” each time. On to “14-3-3 epsilon (YWHAE), endogenous in HEK293 cells (from UniProt P62258 1-255)”, for which the binding result in experiment [1] and in experiment [2] was “binds” in each case. As to “SEC22b, endogenous in HEK293 cells (from UniProt O75396 1-215)”, the binding entry in experiment [1] and in experiment [2] was “binds” throughout. “GBF1, endogenous in HEK293 cells (from UniProt Q92538 1-1860)”: the binding result in experiment [1] is “binds”; in experiment [2], “no binding”.

B1: syntaxin 7 (STX7), endogenous in HEK293 cells (protein, UniProt O15400 1-261)
chain: MSYTPGVGGDPAQLAQRISSNIQKITQCSVEIQRTLNQLGTPQDSPELRQQLQQKQQYTNQLAKETDKYIKEFGSLPTTPSEQRQRKIQKDRLVAEFTTSLTNFQKVQRQAAEREKEFVARVRASSRVSGSFPEDSSKERNLVSWESQTQPQVQVQDEEITEDDLRLIHERESSIRQLEADIMDINEIFKDLGMMIHEQGDVIDSIEANVENAEVHVQQANQQLSRAADYQRKSRKTLCIIILILVIGVAIISLIIWGLNH
With B1, in experiment [1], the binding result is on record as “binds”.

B2: GOSR1, endogenous in HEK293 cells (protein, UniProt O95249 1-250)
chain: MAAGTSSYWEDLRKQARQLENELDLKLVSFSKLCTSYSHSSTRDGRRDRYSSDTTPLLNGSSQDRMFETMAIEIEQLLARLTGVNDKMAEYTNSAGVPSLNAALMHTLQRHRDILQDYTHEFHKTKANFMAIRERENLMGSVRKDIESYKSGSGVNNRRTELFLKEHDHLRNSDRLIEETISIAMATKENMTSQRGMLKSIHSKMNTLANRFPAVNSLIQRINLRKRRDSLILGGVIGICTILLLLYAFH
Turning to B2, the binding entry is reported as “binds” in experiment [1] and “no binding” in experiment [2].

B3: FRMD8, endogenous in HEK293 cells (protein, UniProt Q9BZ67 1-464)
chain: MDGTEGSAGQPGPAERSHRSSVSSVGARAADVLVYLADDTVVPLAVENLPSLSAHELHRAVREVLQLPDIALDVFALWLVSPLLEVQLKPKHQPYKLGRQWPELLLRFTSAPDDDVAMDEPFLQFRRNVFFPKRRELQIHDEEVLRLLYEEAKGNVLAARYPCDVEDCEALGALVCRVQLGPYQPGRPAACDLREKLDSFLPAHLCKRGQSLFAALRGRGARAGPGEQGLLNAYRQVQEVSSDGGCEAALGTHYRAYLLKCHELPFYGCAFFHGEVDKPAQGFLHRGGRKPVSVAISLEGVHVIDSREKHVLLGLRFQELSWDHTSPEEEEPILWLEFDGDSEGTPVNKLLKIYSKQAELMSSLIEYCIELSQAAEPAGPQDSATGSPSDPSSSLAPVQRPKLRRQGSVVSSRIQHLSTIDYVEDGKGIRRVKPKRTTSFFSRQLSLGQGSYTVVQPGDSLEQG
On to B3, for which the binding result in experiment [1] and in experiment [2] was “binds” in each case.

B4: YWHAQ (printed as 14-3-3 zeta), endogenous in HEK293 cells (protein, UniProt P27348 1-245)
chain: MEKTELIQKAKLAEQAERYDDMATCMKAVTEQGAELSNEERNLLSVAYKNVVGGRRSAWRVISSIEQKTDTSDKKLQLIKDYREKVESELRSICTTVLELLDKYLIANATNPESKVFYLKMKGDYFRYLAEVACGDDRKQTIDNSQGAYQEAFDISKKEMQPTHPIRLGLALNFSVFYYEILNNPELACTLAKTAFDEAIAELDTLNEDSYKDSTLIMQLLRDNLTLWTSDSAGEECDAAEGAEN
B4: the binding result in experiment [1] and in experiment [2] was “binds” in each case.

B5: syntaxin 6 (STX6), endogenous in HEK293 cells (protein, UniProt O43752 1-255)
chain: MSMEDPFFVVKGEVQKAVNTAQGLFQRWTELLQDPSTATREEIDWTTNELRNNLRSIEWDLEDLDETISIVEANPRKFNLDATELSIRKAFITSTRQVVRDMKDQMSTSSVQALAERKNRQALLGDSGSQNWSTGTTDKYGRLDRELQRANSHFIEEQQAQQQLIVEQQDEQLELVSGSIGVLKNMSQRIGGELEEQAVMLEDFSHELESTQSRLDNVMKKLAKVSHMTSDRRQWCAIAILFAVLLVVLILFLVL
On to B5, for which, in experiment [1], the binding entry was “binds”.
